Measured values taken from publication PMC3320541.

Molecular target: HopZ2^C/A::nYFP (and HopZ2^C/A::cYFP in the reciprocal combination) (Pseudomonas syringae)
Assay: split reporter; BiFC with nYFP and cYFP fusions (both combinations) co-expressed by Agrobacterium infiltration in N. benthamiana leaves; 20 uM dexamethasone; confocal imaging 72-96 hours after induction

B1: MLO2^Δ1-280::cYFP (and MLO2^Δ1-280::nYFP in the reciprocal combination) (domain or fragment, UniProt Q9SXB6 281-573)
chain: QRSLEKDFKTVVEISPVIWFVAVLFLLTNSYGLRSYLWLPFIPLVVILIVGTKLEVIITKLGLRIQEKGDVVRGAPVVQPGDDLFWFGKPRFILFLIHLVLFTNAFQLAFFAWSTYEFNLNNCFHESTADVVIRLVVGAVVQILCSYVTLPLYALVTQMGSKMKPTVFNDRVATALKKWHHTAKNETKHGRHSGSNTPFSSRPTTPTHGSSPIHLLHNFNNRSVENYPSSPSPRYSGHGHHEHQFWDPESQHQEAETSTHHSLAHESSEPVLASVELPPIRTSKSLRDFSFKK
Question: B1 was tested. Which binding did it give?
Answer: Its binding is “binds”.

Results are given in words; binding and its absence hold for the method and conditions named. In cells and extracts the contact can be indirect. Binding calls can cover weak binding; strength is not graded here. Tags and fused reporters may be left off the sequences shown.
